These are yes or no findings as the source states them, for the method shown.
Target: T1, DB::GPR-1 (C. elegans) (UniProt Q95QJ7)
T1 sequence: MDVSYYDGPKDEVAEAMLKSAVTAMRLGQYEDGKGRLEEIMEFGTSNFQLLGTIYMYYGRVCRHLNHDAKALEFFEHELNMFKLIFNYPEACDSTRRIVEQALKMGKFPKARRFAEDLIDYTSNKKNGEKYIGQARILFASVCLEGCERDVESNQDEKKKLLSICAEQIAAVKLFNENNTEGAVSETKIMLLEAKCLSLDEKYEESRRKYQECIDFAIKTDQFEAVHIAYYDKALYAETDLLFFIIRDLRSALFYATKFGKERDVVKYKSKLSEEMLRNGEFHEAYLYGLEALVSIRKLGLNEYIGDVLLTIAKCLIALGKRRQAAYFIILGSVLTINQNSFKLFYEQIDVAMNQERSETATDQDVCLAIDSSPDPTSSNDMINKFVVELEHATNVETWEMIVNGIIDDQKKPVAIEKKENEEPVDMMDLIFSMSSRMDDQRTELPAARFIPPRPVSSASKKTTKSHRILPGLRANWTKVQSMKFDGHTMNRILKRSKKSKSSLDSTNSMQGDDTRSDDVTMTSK
Test: two-hybrid; reverse two-hybrid: DB::GPR-1 bait, mutagenised AD::LIN-5 609-821 prey, yeast strain MB004, selection on Sc -leu-trp + 5-FOA; single amino acid changes re-cloned and re-tested on Sc -leu-trp-his + 3-AT and Sc -leu-trp-ura plates

Protein sequences, listed by entry. Tags and fused reporters are not part of them. Lines headed by an entry give the natural chain unless they say otherwise; changes in a name come on top.
UniProt P45970: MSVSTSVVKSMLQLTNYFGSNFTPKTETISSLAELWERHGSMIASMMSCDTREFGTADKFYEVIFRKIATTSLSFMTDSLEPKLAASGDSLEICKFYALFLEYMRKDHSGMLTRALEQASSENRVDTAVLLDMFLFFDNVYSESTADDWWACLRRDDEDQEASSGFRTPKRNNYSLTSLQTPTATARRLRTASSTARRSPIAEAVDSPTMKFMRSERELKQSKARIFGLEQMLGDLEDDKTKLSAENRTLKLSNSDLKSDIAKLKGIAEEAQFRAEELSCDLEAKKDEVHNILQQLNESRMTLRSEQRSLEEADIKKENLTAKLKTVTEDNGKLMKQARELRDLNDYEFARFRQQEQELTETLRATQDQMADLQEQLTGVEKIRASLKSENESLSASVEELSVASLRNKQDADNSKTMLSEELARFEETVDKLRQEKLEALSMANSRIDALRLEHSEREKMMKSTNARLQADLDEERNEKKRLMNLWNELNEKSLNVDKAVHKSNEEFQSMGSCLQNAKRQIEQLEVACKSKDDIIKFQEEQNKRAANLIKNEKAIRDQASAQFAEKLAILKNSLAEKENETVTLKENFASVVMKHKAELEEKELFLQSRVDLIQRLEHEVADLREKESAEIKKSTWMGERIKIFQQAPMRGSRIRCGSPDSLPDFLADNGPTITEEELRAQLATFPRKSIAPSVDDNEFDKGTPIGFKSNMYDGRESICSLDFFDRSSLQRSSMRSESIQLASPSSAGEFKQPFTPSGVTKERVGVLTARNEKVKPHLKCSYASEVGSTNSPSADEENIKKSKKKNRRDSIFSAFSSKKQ

AD::LIN-5 609–821 with a missense mutation of S659 (from UniProt P45970) (domain or fragment)
binding: no binding
